# Measurements: publication doi:10.1101/605725
# Amino acid sequences for entries named in this document (tags omitted). A change or cut given only in a name is not applied to a line headed by its entry.
# UniProt Q9VV73: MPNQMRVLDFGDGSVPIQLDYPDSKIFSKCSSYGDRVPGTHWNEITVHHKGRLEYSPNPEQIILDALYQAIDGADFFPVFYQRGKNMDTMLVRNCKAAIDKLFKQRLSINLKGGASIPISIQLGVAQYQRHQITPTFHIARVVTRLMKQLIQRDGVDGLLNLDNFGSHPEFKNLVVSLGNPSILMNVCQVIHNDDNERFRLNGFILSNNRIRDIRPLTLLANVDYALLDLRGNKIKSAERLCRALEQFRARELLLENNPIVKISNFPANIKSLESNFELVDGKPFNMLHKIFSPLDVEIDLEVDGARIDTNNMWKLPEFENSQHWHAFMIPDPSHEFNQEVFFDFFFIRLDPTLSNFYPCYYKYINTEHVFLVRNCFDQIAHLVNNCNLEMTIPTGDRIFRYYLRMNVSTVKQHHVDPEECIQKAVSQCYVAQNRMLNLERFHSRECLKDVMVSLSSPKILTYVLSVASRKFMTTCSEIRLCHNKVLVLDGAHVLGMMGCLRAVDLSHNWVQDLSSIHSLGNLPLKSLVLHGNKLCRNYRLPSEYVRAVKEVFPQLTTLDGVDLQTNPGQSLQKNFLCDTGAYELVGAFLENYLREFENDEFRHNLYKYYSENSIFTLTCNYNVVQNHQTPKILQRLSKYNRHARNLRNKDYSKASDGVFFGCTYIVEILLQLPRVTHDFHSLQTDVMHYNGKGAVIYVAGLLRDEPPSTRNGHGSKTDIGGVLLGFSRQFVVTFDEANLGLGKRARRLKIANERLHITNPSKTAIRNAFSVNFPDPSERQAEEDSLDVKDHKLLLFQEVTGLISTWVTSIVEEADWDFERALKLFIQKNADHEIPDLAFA
# No constants are given. Whether binding was seen depends on the method and setting. Binding seen in cells or lysates may run through a third protein. Some entries that bind do so weakly or less than the wild type.
# Target: T1, Piwi (Drosophila (endogenous in OSCs and ovary)) (UniProt Q9VKM1)
# T1 sequence: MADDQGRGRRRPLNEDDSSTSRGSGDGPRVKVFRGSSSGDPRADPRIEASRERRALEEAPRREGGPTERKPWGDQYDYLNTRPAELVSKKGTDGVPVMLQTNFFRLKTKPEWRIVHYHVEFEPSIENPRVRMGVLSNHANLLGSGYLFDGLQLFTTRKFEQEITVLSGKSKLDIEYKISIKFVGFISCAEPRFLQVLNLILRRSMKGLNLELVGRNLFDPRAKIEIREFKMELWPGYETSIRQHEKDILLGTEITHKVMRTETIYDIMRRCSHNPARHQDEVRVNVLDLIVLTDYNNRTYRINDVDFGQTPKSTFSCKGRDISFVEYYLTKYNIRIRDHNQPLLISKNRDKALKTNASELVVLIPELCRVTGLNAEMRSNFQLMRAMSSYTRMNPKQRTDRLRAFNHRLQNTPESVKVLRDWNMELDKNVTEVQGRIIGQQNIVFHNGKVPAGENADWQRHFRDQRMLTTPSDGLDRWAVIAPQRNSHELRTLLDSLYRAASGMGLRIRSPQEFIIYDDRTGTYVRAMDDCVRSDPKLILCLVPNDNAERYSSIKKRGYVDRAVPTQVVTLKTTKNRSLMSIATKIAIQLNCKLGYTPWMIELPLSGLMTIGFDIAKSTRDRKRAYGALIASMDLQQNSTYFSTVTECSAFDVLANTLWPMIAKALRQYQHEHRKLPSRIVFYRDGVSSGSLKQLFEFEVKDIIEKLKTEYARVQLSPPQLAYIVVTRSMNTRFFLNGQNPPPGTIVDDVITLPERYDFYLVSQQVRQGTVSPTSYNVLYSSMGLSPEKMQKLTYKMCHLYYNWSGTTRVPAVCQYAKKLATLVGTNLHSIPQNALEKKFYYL
# Assay: co-IP
substance,measurement,value
"Nxf2, nuclear RNA export factor (NXF) variant (from UniProt Q9VV73 1-841)",binding,binds
